Test results published in the supplement of paper PMC12819154, “High-throughput peptide-centric local stability assay extends protein–ligand identification to membrane proteins, tissues and bacteria” (Nature Structural & Molecular Biology, 2025).
Some of the results follow. Most entries show no effect beyond the scatter of the controls.

Protein sequences, listed by entry. Tags and fused reporters are not part of them. Lines headed by an entry give the natural chain unless they say otherwise; changes in a name come on top.
UniProt O35071: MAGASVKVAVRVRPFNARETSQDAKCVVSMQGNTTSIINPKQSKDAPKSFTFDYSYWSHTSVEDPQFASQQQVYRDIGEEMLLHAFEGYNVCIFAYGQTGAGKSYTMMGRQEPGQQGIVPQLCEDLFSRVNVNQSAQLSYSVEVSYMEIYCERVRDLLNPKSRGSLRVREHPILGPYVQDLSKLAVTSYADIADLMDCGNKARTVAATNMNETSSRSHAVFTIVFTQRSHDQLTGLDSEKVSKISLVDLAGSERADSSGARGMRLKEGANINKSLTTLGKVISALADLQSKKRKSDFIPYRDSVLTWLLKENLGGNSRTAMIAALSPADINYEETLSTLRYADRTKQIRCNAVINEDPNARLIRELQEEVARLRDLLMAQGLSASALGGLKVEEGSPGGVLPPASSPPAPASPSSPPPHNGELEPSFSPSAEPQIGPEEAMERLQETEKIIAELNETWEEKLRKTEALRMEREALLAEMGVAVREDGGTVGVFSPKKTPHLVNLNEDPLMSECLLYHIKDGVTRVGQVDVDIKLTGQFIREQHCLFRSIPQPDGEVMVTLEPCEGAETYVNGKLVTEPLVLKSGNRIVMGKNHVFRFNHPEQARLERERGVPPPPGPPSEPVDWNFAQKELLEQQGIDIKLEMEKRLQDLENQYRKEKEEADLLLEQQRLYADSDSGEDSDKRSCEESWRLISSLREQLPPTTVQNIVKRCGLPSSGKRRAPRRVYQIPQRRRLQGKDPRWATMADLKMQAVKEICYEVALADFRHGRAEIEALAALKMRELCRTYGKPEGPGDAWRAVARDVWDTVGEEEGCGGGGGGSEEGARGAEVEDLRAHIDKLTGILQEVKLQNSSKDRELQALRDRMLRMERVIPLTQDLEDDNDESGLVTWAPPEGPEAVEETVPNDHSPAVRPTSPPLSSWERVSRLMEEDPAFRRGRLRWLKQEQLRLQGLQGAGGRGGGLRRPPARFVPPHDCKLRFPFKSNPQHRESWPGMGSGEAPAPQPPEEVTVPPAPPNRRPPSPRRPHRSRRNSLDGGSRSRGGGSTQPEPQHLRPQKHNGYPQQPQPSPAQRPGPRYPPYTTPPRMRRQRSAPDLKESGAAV
UniProt O09174: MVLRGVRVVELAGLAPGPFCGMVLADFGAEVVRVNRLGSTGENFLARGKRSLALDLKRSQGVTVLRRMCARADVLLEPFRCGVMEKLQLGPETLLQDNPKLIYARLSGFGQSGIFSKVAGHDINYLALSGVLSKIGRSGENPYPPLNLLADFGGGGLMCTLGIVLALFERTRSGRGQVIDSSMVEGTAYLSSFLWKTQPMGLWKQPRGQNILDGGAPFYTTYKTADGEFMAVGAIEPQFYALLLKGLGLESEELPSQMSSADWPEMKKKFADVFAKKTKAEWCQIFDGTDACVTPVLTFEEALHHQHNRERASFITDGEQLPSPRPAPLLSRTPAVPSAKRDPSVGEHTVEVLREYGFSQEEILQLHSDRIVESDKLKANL
UniProt O35857: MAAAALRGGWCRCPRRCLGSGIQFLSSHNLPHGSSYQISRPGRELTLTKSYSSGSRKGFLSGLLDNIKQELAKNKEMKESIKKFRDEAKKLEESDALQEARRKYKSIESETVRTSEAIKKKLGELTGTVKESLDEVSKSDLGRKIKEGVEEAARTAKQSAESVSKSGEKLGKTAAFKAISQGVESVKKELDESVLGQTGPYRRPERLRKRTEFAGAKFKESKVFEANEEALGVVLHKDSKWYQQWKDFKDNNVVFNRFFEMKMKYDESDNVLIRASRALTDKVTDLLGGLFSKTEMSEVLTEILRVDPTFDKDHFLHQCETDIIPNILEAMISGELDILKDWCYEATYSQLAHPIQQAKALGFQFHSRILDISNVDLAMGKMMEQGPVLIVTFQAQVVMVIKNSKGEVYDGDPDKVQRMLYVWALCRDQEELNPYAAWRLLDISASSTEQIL
UniProt O54879: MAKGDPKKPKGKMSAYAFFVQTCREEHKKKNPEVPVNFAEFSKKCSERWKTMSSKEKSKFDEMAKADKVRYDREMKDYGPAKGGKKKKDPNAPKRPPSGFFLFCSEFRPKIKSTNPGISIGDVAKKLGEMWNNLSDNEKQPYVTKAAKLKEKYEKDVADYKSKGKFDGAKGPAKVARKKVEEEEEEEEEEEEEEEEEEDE
UniProt O88851: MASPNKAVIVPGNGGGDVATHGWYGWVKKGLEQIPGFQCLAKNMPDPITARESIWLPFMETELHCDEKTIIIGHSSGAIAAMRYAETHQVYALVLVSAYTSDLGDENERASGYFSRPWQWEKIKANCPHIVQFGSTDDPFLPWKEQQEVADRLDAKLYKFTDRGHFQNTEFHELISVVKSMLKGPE
UniProt O70472: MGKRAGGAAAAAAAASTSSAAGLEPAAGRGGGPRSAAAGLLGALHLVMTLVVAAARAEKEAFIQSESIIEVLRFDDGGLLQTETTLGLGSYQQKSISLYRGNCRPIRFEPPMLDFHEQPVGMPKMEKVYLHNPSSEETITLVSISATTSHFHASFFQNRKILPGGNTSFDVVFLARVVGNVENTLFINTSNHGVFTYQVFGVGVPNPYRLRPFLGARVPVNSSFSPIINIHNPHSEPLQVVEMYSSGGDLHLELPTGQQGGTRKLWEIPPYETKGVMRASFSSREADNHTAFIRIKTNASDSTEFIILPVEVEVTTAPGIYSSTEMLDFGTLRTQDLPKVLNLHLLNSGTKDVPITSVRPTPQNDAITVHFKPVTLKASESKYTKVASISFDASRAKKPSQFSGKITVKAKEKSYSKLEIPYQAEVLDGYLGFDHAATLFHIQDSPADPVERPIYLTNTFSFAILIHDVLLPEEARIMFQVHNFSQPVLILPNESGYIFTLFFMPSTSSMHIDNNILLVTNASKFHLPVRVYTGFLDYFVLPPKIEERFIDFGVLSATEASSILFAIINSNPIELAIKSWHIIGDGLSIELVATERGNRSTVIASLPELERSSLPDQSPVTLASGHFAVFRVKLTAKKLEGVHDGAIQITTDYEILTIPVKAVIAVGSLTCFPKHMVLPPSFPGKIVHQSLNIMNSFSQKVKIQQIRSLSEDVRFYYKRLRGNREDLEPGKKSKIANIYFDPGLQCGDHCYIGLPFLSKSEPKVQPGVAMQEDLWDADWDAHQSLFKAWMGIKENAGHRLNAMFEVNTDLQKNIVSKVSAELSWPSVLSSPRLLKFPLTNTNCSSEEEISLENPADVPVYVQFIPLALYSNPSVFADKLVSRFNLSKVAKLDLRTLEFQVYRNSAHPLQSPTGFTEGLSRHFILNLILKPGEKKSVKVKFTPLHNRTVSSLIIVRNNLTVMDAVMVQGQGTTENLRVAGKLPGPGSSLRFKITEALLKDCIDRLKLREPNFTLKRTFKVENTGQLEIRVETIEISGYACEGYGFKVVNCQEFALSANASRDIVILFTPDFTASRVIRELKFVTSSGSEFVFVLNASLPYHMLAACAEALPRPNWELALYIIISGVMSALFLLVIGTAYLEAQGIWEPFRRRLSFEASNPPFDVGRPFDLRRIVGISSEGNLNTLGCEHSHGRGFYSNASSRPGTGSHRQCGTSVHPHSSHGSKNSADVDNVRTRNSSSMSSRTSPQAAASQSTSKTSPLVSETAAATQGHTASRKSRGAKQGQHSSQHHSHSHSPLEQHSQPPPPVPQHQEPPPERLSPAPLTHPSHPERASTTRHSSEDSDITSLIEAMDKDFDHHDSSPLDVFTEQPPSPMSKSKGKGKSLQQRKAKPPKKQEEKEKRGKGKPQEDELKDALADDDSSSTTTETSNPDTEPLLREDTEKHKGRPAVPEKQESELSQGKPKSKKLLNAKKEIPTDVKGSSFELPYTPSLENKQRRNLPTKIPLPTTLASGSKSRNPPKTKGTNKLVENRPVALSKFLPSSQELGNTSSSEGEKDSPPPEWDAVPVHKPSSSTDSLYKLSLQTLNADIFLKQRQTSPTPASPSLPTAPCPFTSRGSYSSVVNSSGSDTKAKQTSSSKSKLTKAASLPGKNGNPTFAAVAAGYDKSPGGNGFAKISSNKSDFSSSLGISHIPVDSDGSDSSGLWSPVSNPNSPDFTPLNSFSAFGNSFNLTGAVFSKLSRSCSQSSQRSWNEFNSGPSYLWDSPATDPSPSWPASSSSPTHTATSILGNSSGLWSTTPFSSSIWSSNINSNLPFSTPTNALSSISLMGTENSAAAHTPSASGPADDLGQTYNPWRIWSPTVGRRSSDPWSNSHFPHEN
UniProt P01029: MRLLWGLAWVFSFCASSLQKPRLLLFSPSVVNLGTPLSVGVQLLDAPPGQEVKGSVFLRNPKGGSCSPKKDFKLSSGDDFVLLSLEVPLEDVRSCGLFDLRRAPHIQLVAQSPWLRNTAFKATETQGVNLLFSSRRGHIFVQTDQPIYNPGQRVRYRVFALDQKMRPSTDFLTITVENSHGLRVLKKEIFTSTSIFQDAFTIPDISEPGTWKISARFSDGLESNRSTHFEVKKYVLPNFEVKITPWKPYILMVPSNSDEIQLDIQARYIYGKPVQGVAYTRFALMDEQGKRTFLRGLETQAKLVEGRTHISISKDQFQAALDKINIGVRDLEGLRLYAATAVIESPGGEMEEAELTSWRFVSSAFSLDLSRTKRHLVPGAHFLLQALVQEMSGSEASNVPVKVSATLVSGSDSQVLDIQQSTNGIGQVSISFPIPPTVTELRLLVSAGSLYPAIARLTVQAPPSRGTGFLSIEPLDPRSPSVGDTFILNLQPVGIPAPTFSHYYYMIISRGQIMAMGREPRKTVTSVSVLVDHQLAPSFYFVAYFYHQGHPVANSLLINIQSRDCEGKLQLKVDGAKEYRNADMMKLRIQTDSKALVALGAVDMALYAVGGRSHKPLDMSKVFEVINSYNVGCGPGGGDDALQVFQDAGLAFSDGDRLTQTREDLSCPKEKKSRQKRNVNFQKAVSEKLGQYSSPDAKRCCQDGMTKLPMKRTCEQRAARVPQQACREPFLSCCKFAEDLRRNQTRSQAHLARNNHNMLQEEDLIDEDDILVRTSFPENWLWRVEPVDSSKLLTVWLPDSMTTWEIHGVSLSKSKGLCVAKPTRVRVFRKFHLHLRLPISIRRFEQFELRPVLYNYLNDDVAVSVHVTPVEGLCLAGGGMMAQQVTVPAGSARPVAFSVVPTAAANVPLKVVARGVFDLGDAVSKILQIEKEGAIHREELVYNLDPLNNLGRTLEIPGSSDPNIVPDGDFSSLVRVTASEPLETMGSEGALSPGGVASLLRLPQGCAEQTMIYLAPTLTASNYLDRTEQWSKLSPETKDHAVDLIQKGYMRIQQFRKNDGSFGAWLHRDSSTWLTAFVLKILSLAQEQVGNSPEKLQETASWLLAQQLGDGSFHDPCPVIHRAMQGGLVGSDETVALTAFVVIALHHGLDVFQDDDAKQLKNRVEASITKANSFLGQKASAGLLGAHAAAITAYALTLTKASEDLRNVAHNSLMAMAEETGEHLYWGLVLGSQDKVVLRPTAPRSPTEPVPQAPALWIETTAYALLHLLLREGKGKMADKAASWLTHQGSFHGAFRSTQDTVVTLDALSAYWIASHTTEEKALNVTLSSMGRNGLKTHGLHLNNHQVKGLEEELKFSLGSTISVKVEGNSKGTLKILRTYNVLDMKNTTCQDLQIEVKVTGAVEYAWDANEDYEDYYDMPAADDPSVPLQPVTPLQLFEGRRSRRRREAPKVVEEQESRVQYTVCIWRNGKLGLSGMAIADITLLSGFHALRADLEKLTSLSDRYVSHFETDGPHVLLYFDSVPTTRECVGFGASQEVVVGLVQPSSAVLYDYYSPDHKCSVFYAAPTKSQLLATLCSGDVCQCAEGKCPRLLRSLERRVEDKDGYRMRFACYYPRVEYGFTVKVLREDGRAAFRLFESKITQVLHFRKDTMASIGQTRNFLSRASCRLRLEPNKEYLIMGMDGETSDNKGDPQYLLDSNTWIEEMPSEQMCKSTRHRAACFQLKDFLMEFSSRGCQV
UniProt O70503: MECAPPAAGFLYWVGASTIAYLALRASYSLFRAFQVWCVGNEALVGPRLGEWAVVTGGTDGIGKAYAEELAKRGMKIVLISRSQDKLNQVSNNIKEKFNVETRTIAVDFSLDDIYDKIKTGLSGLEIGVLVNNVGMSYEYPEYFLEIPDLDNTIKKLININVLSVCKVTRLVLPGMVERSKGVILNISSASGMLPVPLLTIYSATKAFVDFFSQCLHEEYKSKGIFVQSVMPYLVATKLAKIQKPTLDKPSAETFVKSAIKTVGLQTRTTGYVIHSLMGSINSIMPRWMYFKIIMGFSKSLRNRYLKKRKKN
UniProt O35682: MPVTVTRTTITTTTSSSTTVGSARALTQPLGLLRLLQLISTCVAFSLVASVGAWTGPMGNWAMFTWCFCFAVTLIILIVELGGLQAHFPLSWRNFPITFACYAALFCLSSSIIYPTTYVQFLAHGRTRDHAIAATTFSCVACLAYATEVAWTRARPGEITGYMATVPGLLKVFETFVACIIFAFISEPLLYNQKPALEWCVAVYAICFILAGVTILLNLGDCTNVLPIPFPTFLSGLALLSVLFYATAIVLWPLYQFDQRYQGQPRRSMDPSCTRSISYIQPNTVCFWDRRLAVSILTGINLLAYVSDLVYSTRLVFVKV

Each target was assayed with CN[C@@H]1C[C@H]2O[C@@](C)([C@@H]1OC)n1c3ccccc3c3c4c(c5c6ccccc6n2c5c31)C(=O)NC4 [staurosporine] (assay: log2 fold change of pooled soluble protein (PISA), ligand vs vehicle (log2 ratio); higher = more thermally stabilized). Details: ligand concentration: 20 uM; assay format: PISA pool 52.9/55.5/58.6 C.

| Target | log2 fold change of pooled soluble protein |
| --- | --- |
| UniProt O35071 | -0.144 |
| UniProt O35955 | -0.104 |
| UniProt G5E829 | -0.0509 |
| UniProt O09174 | 0.173 |
| UniProt P00405 | -0.154 |
| UniProt O09110 | 1.01 |
| UniProt O70228 | -0.205 |
| UniProt O35857 | -0.0323 |
| UniProt O54879 | 0.0712 |
| UniProt O55128 | 0.179 |
| UniProt O88935 | -0.0267 |
| UniProt O08583 | -0.0459 |
| UniProt O89050 | -0.0622 |
| UniProt O35864 | -0.0974 |
| UniProt O70493 | -0.359 |
| UniProt O88851 | 0.0115 |
| UniProt O70451 | 0.131 |
| UniProt O35988 | -0.0913 |

| Target | log2 fold change of pooled soluble protein |
| --- | --- |
| UniProt P00493 | -0.261 |
| UniProt O55131 | 0.019 |
| UniProt O35435 | -0.199 |
| UniProt O55111 | -0.0388 |
| UniProt O70309 | 0.11 |
| UniProt O70472 | 0.112 |
| UniProt O88811 | 0.0578 |
| UniProt O88668 | -0.0715 |
| UniProt P01029 | -0.00278 |
| UniProt O70503 | -0.027 |
| UniProt O35682 | -0.149 |
| UniProt O08601 | 0.035 |
| UniProt O70435 | -0.0112 |
| UniProt O35632 | 0.0984 |
| UniProt O54940 | 0.339 |
| UniProt O88962 | -0.139 |
| UniProt O55137 | 0.338 |
| UniProt O09061 | -0.00364 |

2 entries from above, reformatted.
UniProt O08583
  log2 fold change of pooled soluble protein: -0.0459
UniProt O70451
  log2 fold change of pooled soluble protein: 0.131
